Here are results for three molecules from patent publication US20220249684A1.

Results are given in words; binding and its absence hold for the method and conditions named. Some results given as binding are weak or reduced against the parent protein; the word gives no strength.

In assay [1] the target is T1, Lrig-1 protein stably expressed on the surface of L cells (human) (UniProt Q96JA1).
T1 sequence: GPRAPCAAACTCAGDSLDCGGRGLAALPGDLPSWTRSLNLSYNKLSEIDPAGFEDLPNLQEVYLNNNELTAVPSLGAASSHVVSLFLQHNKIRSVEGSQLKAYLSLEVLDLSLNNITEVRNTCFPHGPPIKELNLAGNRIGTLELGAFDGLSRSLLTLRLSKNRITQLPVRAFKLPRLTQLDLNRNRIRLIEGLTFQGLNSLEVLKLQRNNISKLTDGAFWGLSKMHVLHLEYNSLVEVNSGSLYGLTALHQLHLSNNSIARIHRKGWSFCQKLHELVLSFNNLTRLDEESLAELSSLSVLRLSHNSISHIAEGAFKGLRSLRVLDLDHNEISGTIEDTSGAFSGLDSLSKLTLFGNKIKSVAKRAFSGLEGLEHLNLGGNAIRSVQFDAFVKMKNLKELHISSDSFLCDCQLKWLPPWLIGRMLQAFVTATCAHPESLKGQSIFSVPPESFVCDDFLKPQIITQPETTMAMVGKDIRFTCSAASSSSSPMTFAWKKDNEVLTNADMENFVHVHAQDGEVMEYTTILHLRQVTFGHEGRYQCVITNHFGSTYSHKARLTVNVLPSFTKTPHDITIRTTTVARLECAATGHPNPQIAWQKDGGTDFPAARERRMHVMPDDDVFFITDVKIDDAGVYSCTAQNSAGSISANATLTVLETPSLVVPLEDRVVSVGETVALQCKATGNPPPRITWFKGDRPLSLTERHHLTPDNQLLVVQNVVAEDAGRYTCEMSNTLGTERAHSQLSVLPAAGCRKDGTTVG
As to the kind of experiment: FACS on L cells stably expressing Lrig-1, eFluor 670 anti-mouse secondary antibody.

The target in assay [2] is T2, Lrig-1 protein as a peptide microarray (1,091 overlapping 15-amino-acid peptides) (UniProt Q96JA1).
T2 sequence (looked up): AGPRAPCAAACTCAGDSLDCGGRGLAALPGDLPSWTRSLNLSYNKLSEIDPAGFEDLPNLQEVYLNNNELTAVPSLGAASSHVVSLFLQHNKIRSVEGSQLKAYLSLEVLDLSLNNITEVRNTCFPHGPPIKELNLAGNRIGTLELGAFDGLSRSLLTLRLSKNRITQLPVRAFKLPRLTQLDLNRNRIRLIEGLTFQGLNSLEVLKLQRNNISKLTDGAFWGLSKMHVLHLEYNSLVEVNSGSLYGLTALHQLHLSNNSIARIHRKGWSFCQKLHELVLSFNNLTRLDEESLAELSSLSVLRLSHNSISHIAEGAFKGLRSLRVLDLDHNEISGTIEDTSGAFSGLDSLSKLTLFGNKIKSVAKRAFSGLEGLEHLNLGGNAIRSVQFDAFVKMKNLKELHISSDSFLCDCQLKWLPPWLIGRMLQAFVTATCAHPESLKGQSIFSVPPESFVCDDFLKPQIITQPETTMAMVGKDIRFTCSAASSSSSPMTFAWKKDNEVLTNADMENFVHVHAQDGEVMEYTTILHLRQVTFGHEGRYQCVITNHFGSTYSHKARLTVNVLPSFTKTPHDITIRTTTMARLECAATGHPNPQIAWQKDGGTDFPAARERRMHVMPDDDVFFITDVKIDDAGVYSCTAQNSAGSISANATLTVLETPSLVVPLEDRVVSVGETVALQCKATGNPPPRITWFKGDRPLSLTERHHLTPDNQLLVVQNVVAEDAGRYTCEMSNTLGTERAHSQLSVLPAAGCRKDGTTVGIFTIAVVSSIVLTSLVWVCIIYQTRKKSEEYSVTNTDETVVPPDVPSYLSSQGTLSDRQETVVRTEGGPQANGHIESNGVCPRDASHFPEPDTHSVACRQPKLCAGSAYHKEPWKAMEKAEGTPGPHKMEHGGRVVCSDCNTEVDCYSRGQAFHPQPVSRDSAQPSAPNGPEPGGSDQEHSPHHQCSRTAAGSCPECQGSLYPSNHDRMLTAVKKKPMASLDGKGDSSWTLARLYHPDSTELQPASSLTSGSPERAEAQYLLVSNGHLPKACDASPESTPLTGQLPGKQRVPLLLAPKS
As to the kind of experiment: Lrig-1 peptide microarray, antibody at 1, 10 and 100 ug/ml, fluorescent secondary antibody.

B1: GTC110-02 clone (monoclonal antibody of Preparation Example 2) (antibody, mouse IgG2a, V domains shown)
VH: EVQLLESGGGLVQPGGSLRLSCAASGFTFSDYYMSWVRQAPGKGLEWVSGISHDSGSKYYADSVKGRFTISRDNSKNTLYLQMNSLRAEDTAVYYCARHWTTFDYWGQGTLVTVSS
VL: QSVLTQPPSASGTPGQRVTISCSGSSSNIGSNNVTWYQQLPGTAPKLLIYANSNRPSGVPDRFSGSKSGTSASLAISGLRSEDEADYYCGAWDYSLSAYVFGGGTKLTVLR
In the case of B1, the binding entry in assay [1] is reported as “binds”.

B2: GTC110-03 clone (monoclonal antibody of Preparation Example 3) (antibody, mouse IgG2a, V domains shown)
VH: EVQLLESGGGLVQPGGSLRLSCAASGFTFSNYAMSWVRQAPGKGLEWVSAIYPGGGSIYYADSVKGRFTISRDNSKNTLYLQMNSLRAEDTAVYYCARDILPCPWGRCYYDYAMDVWGQGTLVTVSS
VL: QSVLTQPPSASGTPGQRVTISCSDSSSNIGSNTVSWYQQLPGTAPKLLIYADNNRPSGVPDRFSGSKSGTSASLAISGLRSEDEADYYCGTWDYSLSGYVFGGGTKLTVLR
In the case of B2, the binding result in assay [1] is reported as “binds”.

B3: GTC110-04 clone (monoclonal antibody of Preparation Example 4) (antibody, mouse IgG2a, V domains shown)
VH: EVQLLESGGGLVQPGGSLRLSCAASGFTFSNYAMSWVRQAPGKGLEWVSVISHGGGSTYYADSVKGRFTISRDNSKNTLYLQMNSLRAEDTAVYYCARVISNCHLGVCYYSNGMDVWGQGTLVTVSS
VL: QSVLTQPPSASGTPGQRVTISCSGSSSNIGNNDVYWYQQLPGTAPKLLIYSDSQRPSGVPDRFSGSKSGTSASLAISGLRSEDEADYYCGTWDYSLSGYVFGGGTKLTVLR
As to B3, the binding entry in assay [1] and in assay [2] was “binds” in each case.
